## Primary screen of a compound library

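Whole-parasite assay of Trypanosoma brucei over 72 hours; the read-out is not stated. Concentration: 30 µM. Higher reads as stronger inhibition (inferred: compounds with an IC50 in retests scored well above the rest). Values scatter widely below zero; nearly all retest evidence comes from the higher of the two concentrations used. Of about 64,000 compounds tested this way, about 940 (1.5%) reached 50% or more in at least one test.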

Values are the deposited “Percent Effect”, in %.
The record does not define 0% and 100%; most values in the screen are far below 50% and negative numbers occur (in some assays of this library far below -100).
The compounds are a random part of those screened.

SMILES | percent effect
Cc1cc(CNc2cc(-c3ccoc3C)nn2CCO)c(C)o1 | -64.57
COc1ccc(Br)cc1SCCC(N)=O | -19.96
CCCOC1CCCN(C(=O)c2ccc(S(N)(=O)=O)cc2)C1 (configuration not stated) | 4.44
CN(Cc1ccncc1)C1CC2(CCN(Cc3ccccn3)CC2)C1 | -794.1
Cn1ncc2c(NC3CCSC3)nc(-c3ccncc3)nc21 (configuration not stated) | 38.84
O=c1n(CC2CCCCO2)nc(CC2CCNCC2)n1-c1ccccc1 (configuration not stated) | -0.94
COc1cccc(-c2noc3c2CN(c2ncnc4c2CCC4)CC3)c1 | 5.081
Cc1cccc(N2CCN(C(=O)CCc3ccsc3)C(C)C2)n1 (configuration not stated) | -32.84
CS(=O)(=O)N1CCC(Oc2cnccn2)CC1 | 40.03
CN1CC=C(c2noc(CCC(=O)N3CCCC3)n2)CC1 | -22.15
Cc1cccc(-c2ccc(C(=O)N3CCN(C(C)C)CC3)c(=O)[nH]2)c1 | -2.862
COCCCN(Cc1cnc(C2CCCCC2)nc1)C1CCN(C)CC1 | 17.85
O=C(c1ccc(F)cc1)N1CCOC(c2nc(-c3ncccn3)no2)C1 (configuration not stated) | -1.885
O=C1NCCN1C1CCN(Cc2coc(-c3ccc(F)cc3)n2)CC1 | -12.37
O=C(O)C(F)(F)F.O=C(O)C(F)(F)F.O=C(O)C(F)(F)F.O=C(O)C(F)(F)F.[H][C@@]12CN(Cc3ccncc3)C[C@]1([H])OCCN2CCN1CCCC1 | -15.14
CS(=O)(=O)c1cncnc1C1CCCN(C(=O)NCc2ccccc2)C1 (configuration not stated) | -22.67
Cn1ccnc1CN(CCO)C(=O)c1cc2ccccc2o1 | -33.22
Cc1c(F)cccc1CN1CCn2nc(CNC(=O)N(C)C)cc2C1 | 10.06
CC(C)CCC(=O)N1CCN(C(C)c2nnc(CC(C)C)o2)CC1 (configuration not stated) | -31.96
CS(=O)(=O)NCC1CCCN(C(=O)c2ccco2)C1 (configuration not stated) | -13.69
O=C(NCCN1CCOCC1)c1ccn(-c2ccccc2F)n1 | -26.83
CCC(C)(NCC(=O)Nc1ccccc1)c1nc(C)cs1 (configuration not stated) | 10.85
CCCNC(=O)c1nn(CC)cc1NC(=O)C(C)n1ncc(Cl)c1C (configuration not stated) | -9.189
Cc1cc(C)n(C2CCN(S(=O)(=O)N3CCOCC3)CC2)n1 | -15.31
CCC[C@@H]1CN(Cc2c[nH]nc2-c2ccc(F)cc2)C[C@H]1NS(C)(=O)=O | -63.57
CN1CCC(c2nc3ccc(-c4cccc(F)c4)cn3n2)CC1.O=C(O)C(F)(F)F | 18.29
[H][C@@]12CN(C(=O)c3cccn3C)C[C@]1([H])OCCN2Cc1csc(C)n1 | -83.38
CCN1CCN(C(=O)CCC2CCN(C(C)CCC(=O)OC)CC2)CC1 (configuration not stated) | -23.16
O=C(O)C(F)(F)F.O=C(O)C(F)(F)F.O=C(O)C(F)(F)F.c1cc(CN2CCOCC3(CCN(CC4CCOCC4)CC3)C2)ccn1 | -24.72
O=C(O)C(F)(F)F.[H][C@@]12C[C@H](C(=O)Nc3ccccc3)[C@@]([H])(CN(CC)C1)O2 | -408.6
COCCS(=O)(=O)Nc1ccc(-n2nccc2C(F)(F)F)cc1 | -42.33
CN(c1ncccc1CNS(=O)(=O)N1CCOCC1)C1CCCCC1 | -49.55
COc1ccccc1CN1CCN(CCN2CCOC2=O)CC1 | -64.53
[H][C@@]12CCN(S(C)(=O)=O)[C@]1([H])CC[C@H](C(=O)NCCOC)O2 | -5.371
CC(C)C(C)(C#N)NC(=O)CN1CCCN(Cc2ccccc2F)CC1 (configuration not stated) | -24.17
CSCC(C)(O)CNS(=O)(=O)c1cccc(C)c1 (configuration not stated) | 1.561
CC(C)Cn1cc(NC(=O)N2CCOC(c3ccccc3)C2)cn1 (configuration not stated) | -10.94
O=C(O)C(F)(F)F.[H][C@@]12CCN(S(C)(=O)=O)[C@]1([H])CC[C@@H](C(=O)NCCc1ccncc1)O2 | -37.32
CCN1Cc2ccccc2N(C(=O)C2CCC2)CCC1=O | -1.604
Cc1nnc(CN(Cc2ccc(Cl)c(Cl)c2)C2CC2)o1 | 2.158
[H][C@]12CC[C@]([H])(CN(C(=O)N(C)C)C1)N(C(=O)CCc1n[nH]c(C)c1C)C2 | -8.671
O=C1NCCN1C1CCN(Cc2coc(-c3ccccc3)n2)CC1 | -9.073
CC1CCN(CCNC(=O)Nc2ccc(F)cc2Cl)CC1 | -43.86
CCn1c(C2CCNCC2)nn(Cc2ccc(C(=O)NC)o2)c1=O | 10.24
CCC(CNC(=O)N1CCOCC2(CCOCC2)C1)c1ccccc1 (configuration not stated) | -20.73
CC(C)COC(=O)N1CC(=O)N(CCCc2ccccc2)CC(O)C1 (configuration not stated) | 6.576
c1ccc(CCNc2ncnc3c2CCN(Cc2c[nH]cn2)CC3)cc1 | 11.51
CCc1n[nH]c(C2CN(C(=O)c3cnns3)CCO2)n1 (configuration not stated) | -39.92
CCOC1CC2(CCN(C(C)=O)CC2)c2cc(F)ccc21 (configuration not stated) | -59.44
CN(CCCc1ccccc1)Cc1nc2c(cnn2C)c(=O)[nH]1 | -10.99
CC(C)N1CCOC(c2cc(CCO)[nH]n2)C1 (configuration not stated) | -12.98
O=C(c1cn(Cc2ccccc2)c2ncccc12)N1CCCCC1 | -12.3
CNCC(=O)N1CC(c2cc(Nc3nc(C)cs3)nc(C)n2)C1.Cl | 20.55
CN(C)C[C@H]1C[C@@H](CO)CN(C(=O)c2cc(=O)[nH]c3cc(F)ccc23)C1 | -17.11
CC(C)n1c(=O)nc2n1C(=O)N(c1ccc(F)cc1)C2 | 24.9
c1cnc(NCc2noc3c2CN(C2CCOC2)CC3)nc1 (configuration not stated) | -38.47
[H][C@@]12CCN(C[C@@H]1CN1CCc3ccccc31)[C@@H](CNC(=O)COC)C2 | -3.118
Cc1ccc(NC(=O)N2CCC(NC(=O)c3ccc(C)o3)CC2)cc1 | 3.71
[H][C@@]12CCN(Cc3ccco3)CC[C@]1([H])[C@@H](COCC1CC1)CN(C)C2=O | -56.98
Cl.Cn1nc(C2CCCN(Cc3ccc(F)cc3)C2)c2nccnc21 (configuration not stated) | 4.536
CCCC(C)CN1CCC(n2cc(CCCO)nn2)CC1 (configuration not stated) | 11.33
CC(C)N1CCCC(C(=O)N2CCN(c3cccc(C(=O)O)c3)CC2)C1 (configuration not stated) | -13.92
CN1CCCN(C(=O)c2nc3c(n2C)CCN(c2ncccn2)C3)CC1 | -57.01
Cc1nc(C)n(CC2CCCN2CC(=O)NCCC2=CCCCC2)n1 (configuration not stated) | -17.6
Cc1noc(C)c1-c1n[nH]c2c1CN(S(=O)(=O)c1cccnc1)CC2 | -16.81
Cc1noc(C)c1CN(C)Cn1c(=O)oc2ccccc21 | -35.69
COc1cccc(CN2CCCCCC2c2cccc(F)c2)c1O (configuration not stated) | 12.36
O=C(CN1CCc2cncnc2C1)N1CCc2sccc2C1 | -35.14
Cn1cc(C(=O)Nc2ccc3c(c2)CN(C(=O)C2CC2)CC3)nn1 | -3.187
N#Cc1cccc(CNCCC(=O)N2CCc3sccc3C2)c1 | -4.273
COC[C@@H]1CCC[C@]12CN(S(=O)(=O)c1cn(C)cn1)CCO2 | -10.6
COc1ccc2nc(C3CC3)cc(C(=O)NCCc3nnc[nH]3)c2c1 | -43.17
Cc1c(C(=O)N[C@H]2CN(CCS(C)(=O)=O)C[C@@H]2C2CC2)cnn1C | -26.16
Cc1nnc(CN2CCN(CC(O)c3ccccc3)CC2)o1 (configuration not stated) | 8.188
COc1cc(F)c(NC(=O)N(C)CCNC(=O)N(C)C)cc1F | -2.927
CC1CCN(S(=O)(=O)NCCCn2cncn2)CC1 | 1.309
COCCCNC(=O)c1ccn(-c2ccc3ccccn23)n1 | 8.11
Cn1c(CCN2CCN(c3ccc(O)cc3)CC2)nc2ccccc21 | -4.522
CNC(=O)COC1COC2(CCN(Cc3cccnc3OC)CC2)C1.O=C(O)C(F)(F)F (configuration not stated) | -30.72
CN1C(=O)CC(c2ccccc2)C12CCN(CCO)CC2.O=C(O)C(F)(F)F (configuration not stated) | 6.033
Cc1nccc(N[C@H]2CN(C(=O)CN3CCOCC3)C[C@@H]2C(C)C)n1 | -21.18
O=C(O)C(F)(F)F.O=C(O)C(F)(F)F.[H][C@@]12OCCN(Cc3ccc(OC)cc3)[C@@]1([H])CC[C@H]2OCc1ccncc1 | -84.86
CCOc1ccc(N(C)Cc2nnc(C)o2)cc1 | -136.8
CC(=O)NCCC(=O)NC(C)c1sc(-c2ccccc2F)nc1C (configuration not stated) | -7.941
CCOc1ccc(NC(=O)Cn2cc(I)cn2)cc1 | -41.46
c1cn2c(n1)CNCC(COCC1CC1)C2 (configuration not stated) | -17.27
CC(C)(C)OC(=O)N[C@@H]1C[C@@H](O)CN(C(=O)c2ccc(F)cc2)C[C@H]1O | -21.71
CCOCC(O)CN1CCN(C(=O)c2ccc(C)nc2)CC1 (configuration not stated) | 7.466
CCOc1ccc(NC(=O)Cc2cc(C)[nH]n2)cc1CO | -22.72
Cc1nc(C)n(C2CCCN(C(=O)CCOc3cccc(F)c3)C2)n1 (configuration not stated) | -15.89
COc1ccc(OCCNC(=O)c2ccc3c(=O)[nH][nH]c(=O)c3c2)cc1 | -11.95
CCC(C(=O)NC1(C(N)=O)CCCC1)n1cccn1 (configuration not stated) | -50.3

Some entries from above, unchanged:

| SMILES | percent effect |
|---|---|
| `COc1ccc2nc(C3CC3)cc(C(=O)NCCc3nnc[nH]3)c2c1` | -43.17 |
| `COCCS(=O)(=O)Nc1ccc(-n2nccc2C(F)(F)F)cc1` | -42.33 |
| `CCOCC(O)CN1CCN(C(=O)c2ccc(C)nc2)CC1` (configuration not stated) | 7.466 |
| `COc1ccccc1CN1CCN(CCN2CCOC2=O)CC1` | -64.53 |
| `Cn1ccnc1CN(CCO)C(=O)c1cc2ccccc2o1` | -33.22 |
| `[H][C@@]12CCN(C[C@@H]1CN1CCc3ccccc31)[C@@H](CNC(=O)COC)C2` | -3.118 |

The values are deposited in ChEMBL (CHEMBL3988442, “University of Dundee, Small-Polar-MMV Screening Library” (2021)).